From article PMC8633027
No constants are given. Whether binding was seen depends on the method and setting. In cells and extracts the contact can be indirect.

The chains behind the UniProt entries cited, without tags or fusion partners. Where a name states a change or a piece, a line headed by the entry shows the natural chain unless it says otherwise.
UniProt Q03135: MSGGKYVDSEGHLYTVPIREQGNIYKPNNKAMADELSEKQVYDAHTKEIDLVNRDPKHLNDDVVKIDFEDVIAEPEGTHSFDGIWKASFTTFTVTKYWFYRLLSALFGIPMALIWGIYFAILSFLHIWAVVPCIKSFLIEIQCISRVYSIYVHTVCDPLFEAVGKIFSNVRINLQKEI
UniProt Q9HBA0: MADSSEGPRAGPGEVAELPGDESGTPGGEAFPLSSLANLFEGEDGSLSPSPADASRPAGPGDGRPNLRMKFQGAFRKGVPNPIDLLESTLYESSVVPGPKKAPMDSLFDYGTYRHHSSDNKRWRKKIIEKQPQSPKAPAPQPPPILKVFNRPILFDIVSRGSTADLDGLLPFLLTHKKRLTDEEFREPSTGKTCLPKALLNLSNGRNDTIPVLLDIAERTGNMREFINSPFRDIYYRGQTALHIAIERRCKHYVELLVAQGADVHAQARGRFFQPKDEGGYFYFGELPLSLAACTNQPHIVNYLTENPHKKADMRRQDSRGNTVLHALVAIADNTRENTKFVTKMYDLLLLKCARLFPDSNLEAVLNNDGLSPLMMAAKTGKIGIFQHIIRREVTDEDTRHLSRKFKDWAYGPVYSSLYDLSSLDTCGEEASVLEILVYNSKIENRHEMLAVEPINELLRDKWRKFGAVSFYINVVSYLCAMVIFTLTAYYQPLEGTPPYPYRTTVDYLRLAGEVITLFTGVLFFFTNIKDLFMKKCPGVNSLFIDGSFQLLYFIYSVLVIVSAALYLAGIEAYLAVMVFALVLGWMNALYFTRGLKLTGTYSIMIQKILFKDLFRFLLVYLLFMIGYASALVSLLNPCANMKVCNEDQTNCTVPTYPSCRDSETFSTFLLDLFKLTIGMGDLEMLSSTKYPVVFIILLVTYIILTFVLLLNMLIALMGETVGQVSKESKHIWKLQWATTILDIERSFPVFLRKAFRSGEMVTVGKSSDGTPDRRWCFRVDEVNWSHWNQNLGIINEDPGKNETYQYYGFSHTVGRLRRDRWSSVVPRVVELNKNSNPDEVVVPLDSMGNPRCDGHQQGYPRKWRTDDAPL

Biological target: caveolin-1 (human (endogenous in TM cells)) (UniProt Q03135)
Test: co-IP; Cav-1 antibody on Protein G Dynabeads; TM cell lysates (2% octylglucoside, 150 mM NaCl, 10 mM Tris-HCl pH 7.4, 0.5 mM EDTA, 0.1% Triton X-100) incubated 15 min at room temperature; input, bound and unbound fractions blotted for Cav-1 and TRPV4; control, MβCD- and MβCD:cholesterol-treated cells

binding: no binding
Substance: full-length variants of transient receptor potential vanilloid isoform 4 (TRPV4) (from UniProt Q9HBA0 1-871)
